Results are given in words; binding and its absence hold for the method and conditions named. Binding seen in cells or lysates may run through a third protein. Here binding means that the protein was enriched with, or labelled near, the bait; the list need not be complete.
Target: PROX1-BioID fusion protein (FUW-BirAv-hPROX1) (human) (UniProt Q92786)
Assay: proximity labelling

By UniProt entry, the sequences of proteins in these tests, tags left out.
UniProt Q92786: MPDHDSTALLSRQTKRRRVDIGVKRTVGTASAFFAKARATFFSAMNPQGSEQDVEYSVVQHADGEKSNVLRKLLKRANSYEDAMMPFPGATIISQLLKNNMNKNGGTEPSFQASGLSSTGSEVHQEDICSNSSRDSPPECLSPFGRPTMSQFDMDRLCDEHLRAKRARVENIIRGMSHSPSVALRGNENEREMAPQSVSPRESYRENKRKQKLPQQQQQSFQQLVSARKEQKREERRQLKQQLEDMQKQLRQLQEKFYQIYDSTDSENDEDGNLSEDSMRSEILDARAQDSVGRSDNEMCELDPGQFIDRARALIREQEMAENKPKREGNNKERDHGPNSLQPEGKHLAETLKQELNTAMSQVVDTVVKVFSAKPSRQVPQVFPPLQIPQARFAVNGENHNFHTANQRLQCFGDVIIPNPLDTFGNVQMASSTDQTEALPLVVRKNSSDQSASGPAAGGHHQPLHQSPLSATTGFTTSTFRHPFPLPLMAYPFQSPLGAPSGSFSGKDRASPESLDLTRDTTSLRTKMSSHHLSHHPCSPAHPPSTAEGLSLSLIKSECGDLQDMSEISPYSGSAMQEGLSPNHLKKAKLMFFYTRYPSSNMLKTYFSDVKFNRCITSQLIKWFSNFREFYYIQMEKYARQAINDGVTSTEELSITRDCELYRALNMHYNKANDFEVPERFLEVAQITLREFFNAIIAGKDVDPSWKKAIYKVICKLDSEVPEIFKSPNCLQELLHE
UniProt Q13547: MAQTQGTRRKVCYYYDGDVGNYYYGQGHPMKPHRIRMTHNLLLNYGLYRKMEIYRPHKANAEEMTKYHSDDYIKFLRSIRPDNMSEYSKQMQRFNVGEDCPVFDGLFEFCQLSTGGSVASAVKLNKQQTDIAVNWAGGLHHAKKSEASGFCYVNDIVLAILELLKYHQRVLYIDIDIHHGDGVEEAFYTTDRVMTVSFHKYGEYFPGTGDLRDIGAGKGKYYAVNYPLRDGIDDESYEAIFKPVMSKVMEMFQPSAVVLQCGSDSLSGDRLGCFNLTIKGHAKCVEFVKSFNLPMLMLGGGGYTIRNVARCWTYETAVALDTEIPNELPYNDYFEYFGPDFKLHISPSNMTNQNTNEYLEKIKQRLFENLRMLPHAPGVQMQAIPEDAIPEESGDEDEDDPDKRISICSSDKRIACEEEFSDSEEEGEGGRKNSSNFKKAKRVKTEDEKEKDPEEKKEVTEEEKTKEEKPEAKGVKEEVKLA
UniProt Q92769: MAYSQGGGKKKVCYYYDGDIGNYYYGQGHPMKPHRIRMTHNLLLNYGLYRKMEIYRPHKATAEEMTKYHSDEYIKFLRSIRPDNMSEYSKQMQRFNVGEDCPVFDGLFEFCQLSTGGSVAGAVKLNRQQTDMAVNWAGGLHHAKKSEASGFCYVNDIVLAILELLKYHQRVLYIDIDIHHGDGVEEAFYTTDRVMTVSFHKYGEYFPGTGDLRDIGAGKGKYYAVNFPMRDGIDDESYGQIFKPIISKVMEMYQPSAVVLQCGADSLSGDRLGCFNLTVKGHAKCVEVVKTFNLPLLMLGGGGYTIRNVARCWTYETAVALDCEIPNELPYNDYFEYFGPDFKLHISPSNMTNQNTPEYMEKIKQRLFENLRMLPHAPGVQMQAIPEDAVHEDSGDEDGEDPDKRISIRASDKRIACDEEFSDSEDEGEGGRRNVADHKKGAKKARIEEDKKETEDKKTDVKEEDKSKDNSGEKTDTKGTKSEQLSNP
UniProt O15379: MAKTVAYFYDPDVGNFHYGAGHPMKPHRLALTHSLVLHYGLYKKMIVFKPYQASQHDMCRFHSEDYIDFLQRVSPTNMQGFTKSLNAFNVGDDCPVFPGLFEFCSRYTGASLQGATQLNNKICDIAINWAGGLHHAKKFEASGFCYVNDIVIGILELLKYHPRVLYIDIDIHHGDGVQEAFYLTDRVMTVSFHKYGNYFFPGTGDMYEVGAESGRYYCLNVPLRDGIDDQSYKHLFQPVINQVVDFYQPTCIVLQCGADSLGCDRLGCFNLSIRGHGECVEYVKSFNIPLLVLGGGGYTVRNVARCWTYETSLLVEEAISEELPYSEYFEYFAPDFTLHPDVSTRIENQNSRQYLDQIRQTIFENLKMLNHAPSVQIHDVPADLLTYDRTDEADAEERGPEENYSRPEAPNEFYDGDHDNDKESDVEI
UniProt O75376: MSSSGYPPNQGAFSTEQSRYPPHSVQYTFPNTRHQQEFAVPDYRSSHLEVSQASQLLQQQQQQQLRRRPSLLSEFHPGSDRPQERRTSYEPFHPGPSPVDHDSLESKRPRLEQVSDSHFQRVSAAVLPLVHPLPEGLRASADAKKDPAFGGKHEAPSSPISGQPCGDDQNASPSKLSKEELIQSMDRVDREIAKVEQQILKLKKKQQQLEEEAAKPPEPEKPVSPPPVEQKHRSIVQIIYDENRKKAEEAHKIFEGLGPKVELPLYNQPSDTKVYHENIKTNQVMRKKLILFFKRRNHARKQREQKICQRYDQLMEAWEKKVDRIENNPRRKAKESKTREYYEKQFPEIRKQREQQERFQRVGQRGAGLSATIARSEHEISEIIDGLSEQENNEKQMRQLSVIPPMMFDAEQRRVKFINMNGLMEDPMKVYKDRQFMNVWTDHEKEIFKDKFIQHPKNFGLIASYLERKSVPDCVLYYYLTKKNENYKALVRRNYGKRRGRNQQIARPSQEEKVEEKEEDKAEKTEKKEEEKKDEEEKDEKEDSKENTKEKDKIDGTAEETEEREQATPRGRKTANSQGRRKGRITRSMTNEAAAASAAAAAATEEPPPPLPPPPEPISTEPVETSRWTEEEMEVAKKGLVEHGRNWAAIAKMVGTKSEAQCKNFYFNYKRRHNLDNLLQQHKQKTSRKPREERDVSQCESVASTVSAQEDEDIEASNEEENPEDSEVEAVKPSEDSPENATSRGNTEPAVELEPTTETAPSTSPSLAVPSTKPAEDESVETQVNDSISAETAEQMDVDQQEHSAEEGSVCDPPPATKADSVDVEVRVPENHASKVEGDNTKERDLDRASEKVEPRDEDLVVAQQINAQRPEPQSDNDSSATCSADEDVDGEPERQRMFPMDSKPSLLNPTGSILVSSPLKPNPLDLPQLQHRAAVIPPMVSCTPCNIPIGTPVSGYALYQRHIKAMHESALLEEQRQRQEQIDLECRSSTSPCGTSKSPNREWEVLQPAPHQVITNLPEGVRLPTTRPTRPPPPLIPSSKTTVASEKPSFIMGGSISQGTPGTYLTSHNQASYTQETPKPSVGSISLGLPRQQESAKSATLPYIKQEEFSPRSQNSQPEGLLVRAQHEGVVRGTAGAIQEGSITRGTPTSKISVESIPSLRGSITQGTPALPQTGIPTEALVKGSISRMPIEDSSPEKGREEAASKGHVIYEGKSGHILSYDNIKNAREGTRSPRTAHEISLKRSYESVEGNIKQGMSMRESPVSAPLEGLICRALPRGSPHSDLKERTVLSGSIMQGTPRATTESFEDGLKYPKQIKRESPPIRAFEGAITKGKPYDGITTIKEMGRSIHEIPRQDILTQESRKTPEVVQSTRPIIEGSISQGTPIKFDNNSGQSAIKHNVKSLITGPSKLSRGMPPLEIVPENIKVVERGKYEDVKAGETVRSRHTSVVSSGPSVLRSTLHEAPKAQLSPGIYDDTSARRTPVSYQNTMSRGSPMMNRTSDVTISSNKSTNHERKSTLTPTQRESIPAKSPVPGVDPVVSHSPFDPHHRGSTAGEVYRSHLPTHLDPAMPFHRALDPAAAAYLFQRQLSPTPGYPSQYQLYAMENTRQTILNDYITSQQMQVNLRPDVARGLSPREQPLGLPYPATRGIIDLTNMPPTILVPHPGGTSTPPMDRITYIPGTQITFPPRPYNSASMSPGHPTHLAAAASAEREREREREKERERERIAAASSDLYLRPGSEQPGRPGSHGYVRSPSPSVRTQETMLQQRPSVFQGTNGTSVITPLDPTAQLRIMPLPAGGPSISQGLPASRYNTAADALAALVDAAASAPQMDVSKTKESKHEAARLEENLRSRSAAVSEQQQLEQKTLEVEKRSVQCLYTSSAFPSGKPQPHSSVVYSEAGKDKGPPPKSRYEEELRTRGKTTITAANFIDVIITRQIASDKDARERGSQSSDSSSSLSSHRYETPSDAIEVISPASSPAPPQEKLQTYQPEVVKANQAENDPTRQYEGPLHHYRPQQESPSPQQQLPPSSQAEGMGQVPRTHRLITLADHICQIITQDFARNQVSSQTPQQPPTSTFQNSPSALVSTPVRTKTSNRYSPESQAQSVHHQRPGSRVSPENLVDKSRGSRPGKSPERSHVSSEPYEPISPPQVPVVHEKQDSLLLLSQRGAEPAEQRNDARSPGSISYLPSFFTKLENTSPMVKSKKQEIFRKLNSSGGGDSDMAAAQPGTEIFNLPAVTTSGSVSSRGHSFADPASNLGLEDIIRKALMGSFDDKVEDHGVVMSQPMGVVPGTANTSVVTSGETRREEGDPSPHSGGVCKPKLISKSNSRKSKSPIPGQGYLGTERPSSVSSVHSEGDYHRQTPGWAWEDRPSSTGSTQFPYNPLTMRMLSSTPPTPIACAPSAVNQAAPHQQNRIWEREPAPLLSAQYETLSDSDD

For “HDAC1 (from UniProt Q13547 1-482) (enzyme)”, the binding was “binds”.

With “HDAC2 (from UniProt Q92769 1-488) (enzyme)” the binding was “binds”.

“HDAC3 (from UniProt O15379 1-428) (enzyme)” was tested, and the binding was “binds”.

With NCoR1 (from UniProt O75376 1-2440) the binding was “binds”.

From article doi:10.1101/2020.04.19.045989
